The source of these data is article PMC10986131.

Protein sequences, listed by entry. Tags and fused reporters are not part of them.
UniProt P62873: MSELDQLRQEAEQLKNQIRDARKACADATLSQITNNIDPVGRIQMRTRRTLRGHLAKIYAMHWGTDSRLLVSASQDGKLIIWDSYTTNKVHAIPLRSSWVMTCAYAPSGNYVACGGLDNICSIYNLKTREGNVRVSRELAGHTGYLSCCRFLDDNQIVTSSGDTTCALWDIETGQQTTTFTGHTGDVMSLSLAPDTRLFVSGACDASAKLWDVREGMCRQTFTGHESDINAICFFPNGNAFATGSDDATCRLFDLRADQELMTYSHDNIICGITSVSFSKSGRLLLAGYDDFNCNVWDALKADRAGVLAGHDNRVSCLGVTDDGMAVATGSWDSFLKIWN
UniProt P32121: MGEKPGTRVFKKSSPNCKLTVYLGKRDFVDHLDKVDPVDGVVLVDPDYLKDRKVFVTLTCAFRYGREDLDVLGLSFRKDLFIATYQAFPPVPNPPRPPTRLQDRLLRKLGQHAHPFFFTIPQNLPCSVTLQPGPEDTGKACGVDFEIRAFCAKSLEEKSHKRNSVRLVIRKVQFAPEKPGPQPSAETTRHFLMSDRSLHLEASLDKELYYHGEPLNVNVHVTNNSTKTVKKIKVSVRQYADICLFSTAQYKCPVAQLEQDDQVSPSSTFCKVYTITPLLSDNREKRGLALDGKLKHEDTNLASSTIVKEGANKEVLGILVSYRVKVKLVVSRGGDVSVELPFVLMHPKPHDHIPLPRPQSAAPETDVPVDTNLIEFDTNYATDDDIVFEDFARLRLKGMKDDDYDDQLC

These are yes or no findings as the source states them, for the method shown. Binding seen in cells or lysates may run through a third protein. Some results given as binding are weak or reduced against the parent protein; the word gives no strength.

This assay has as its target FLAG-Gβ1 (UniProt P62873). In words: co-IP; transfected HEK293 cells expressing D3R (Fig. 8D: CTRL-shRNA and TRAF6-KD cells); lysis in 20 mM HEPES, 150 mM NaCl, 2 mM EDTA, 10% glycerol, 0.5% NP-40; anti-FLAG agarose beads 2-3 h at 4 °C; immunoblot; cells treated with vehicle, 30 nM DA or 100 nM Quin by the desensitization protocol (treated, washed, retreated), some pretreated with 10 μM PP2 for 30 min. Background: A western blot detects proteins with antibodies after separation by electrophoresis.

In the case of GFP-β-Arr2 (from UniProt P32121 1-409), the binding result is reported as “binds”.
